Assay results from patent US12624112 (MABWELL SHANGHAI BIOSCIENCE, dated 2026).
Results are given in words; binding and its absence hold for the method and conditions named. Some binding calls cover weakened binding; strength is not graded here.

Tests used:
[1] = target: Cyno ST2-fc (cyno; human); experiment: ELISA: cyno ST2-fc coated at 1 µg/mL, antibody titrated 3-fold from 1000 ng/mL, goat anti-mouse secondary antibody, OD450 [7-2]
[2] = target: Cyno ST2-fc (cyno; human); experiment: ELISA: cyno ST2-fc coated at 1 µg/mL, antibody titrated 3-fold from 1000 ng/mL, goat anti-mouse secondary antibody, OD450 [7-1]
[3] = target: Cyno ST2-fc (cyno; human); experiment: ELISA, coated cyno ST2-fc

Binder | binding [1] | binding [2] | binding [3]
5888-379H1+L2 (antibody, V domains shown, murine antibody) VH: QIQLAQSGPELKKPGETVKISCKASGYTFINYGMNWVKQAPGKDLKWMGWINTYIGEPTYGDNFKGRFAFSLETSASTVYLQINNLKNEDTATYFCAREGDGFAYWGQGTLVTVSA VL: DIVMTQSPPSLSVSVGEKVTMSCKSSQSLLYSGNQNNYLAWYQQKPGQPPKLLIYGASTRESGVPDRFTGSGSGTDFTLTISSVQAEDLAVYYCQNDHSYPYTFGGGTKLEIK | binds | – | binds
5886-156H+L (antibody, V domains shown, murine antibody) VH: DVQLQQSGPGLVKPSQSLSLTCTVTGYSITSDYAWNWIRQFPGNKLEWMGYIDYSGSTTYNPSLKSRFSITRDTSKNQFFLQLNSVTTEDTATYYCASTVIDSMDYWGQGTSVTVSS VL: DIVLTQSPASLAVSLGQRATISCRASKSVSTSGHSYMHWYQQKPGQPPKLLIYLASNLESGVPARFSGSGSGTDFTLNINPMEEEDAATYYCQHSREFPFTFGSGTKLEIK | – | binds | binds
5888-116H1+L1 (antibody, V domains shown, murine antibody) VH: QVQLQQSGAELVRPGASVTLSCKASGYTFTDSEMYWVRLTPVHGLEWIGAIDPETGDTAFNQKFKGKATLTADKSSSTAYMELRSLTSEDSVVYYCTRAFDNDNDDGFAYWGQGTLVTVSA VL: QIVMTQSPAIMSASPGEKVTMTCSASSSVNYMHWYQQKSGTSPKRWIYDTSKLASGVPARFSGSGSGTSYSLTISSMEAEDAATYYCQQWSSNPLTFGAGTKLELK | binds | – | binds
5888-153H1+L2 (antibody, V domains shown, murine antibody) VH: QVQLQQSGAELVRPGASVTLSCKASGYTFTDYELHWVKQTPVHGLEWIGTIDPETGDTVYNQKFKAKAILTADKSSSTAYMEFRSLTSEDSAVCYCTRAFYNDYDDGFAYWGQGTLVTVSA VL: QIVMTQTPAIMSASPGEKVTMTCSVSSSVSYMHWYQQKSGTSPKRWIYDTSKLASGVPARFSGSGSGTSYSLTINNMEAEDAATYYCQQWNSSPLTFGAGTKLELK | binds | – | binds
5887-537H3+L1 (antibody, V domains shown, murine antibody; also called 5887-537H3H+L1) VH: QVTLKESGPGILQPSQTLSLTCSFSGFSLSTSGMGVGWIRQPSGKGLEWLAHIWWDDVKQYNPALKSRLTISKDTSSSQVFLKSASVDTADTATYYCARIGGDYDYFDFWGQGTTLTVSS VL: DIVLTQSPASLAVSLGQRATISCRASESVEYSGTSLMQWYQQKPGQPPKLLIYVASNVESGVPARFSGSGSGTDFSLNIHPVEEDDIAMYFCQQSRKVPWTFGGGTKLEIK | – | binds | binds

More lines, now with the values ahead:

binding [1] | binding [2] | binding [3] | Binder
binds | binds | – | Control antibody CNTO7160 (antibody, human IgG4 S228P, kappa, V domains shown) VH: EVQLLESGGGLVQPGGSLRLSCAASGFTFSIYDMIWVRQAPGKGLEWVSSIRGEGGGTYYADSVKGRFTISRDNSKNTLYLQMNSLRAEDTAVYYCARDPWSTEGSFFVLDYWGQGTLVTVSS VL: EIVLTQSPATLSLSPGERATLSCRASQSVDDDLAWYQQKPGQAPRLLIYDASNRATGIPARFSGSGSGTDFTLTISSLEPEDFAVYYCQQYITAPLTFGQGTKVEIKR
– | binds | binds | 5887-41H+L (antibody, V domains shown, murine antibody) VH: DVQLQQSGPGLVKPSQSLSLTCTVTGYSITSDYAWDWIRQFPGNKLEWMGYIRYSGDTYYNPSLKSRISITRDTSKNQFFLQLNSVTTEDTATYYCATTMMDTMDYWGQGTSVTVSS VL: DIVLTQSPASLTVSLGQRATISCRASKSVSTSGNSYMHWYQQKPGQPPKLLIYLASNLESGVPARFSGSGSGTDFTLNIHPVEEEDAATYYCQHSREFPLTFGAGTKLELK
binds | – | binds | 5888-357H+L (antibody, V domains shown, murine antibody) VH: QVQLQQSVTELVRPGASVTLSCKASGYRFTDSEMHWVKQTPVHGLEWIGTIDPETGGTVYNQKFKGKAKLTADRSSSTVSMELRSLTSEDSAVYYCTRAFYNDFDDGFAYWGQGTLVTVSA VL: QIVMTQSPAIMSASPGEKVTLTCSASTSVSYMHWYQQKSGTSPKRWIYDTSKLASGVPARFSGSGSGTSYSLTISSMEAEDAATYYCQQWSSNPLTFGAGTKLELK
